From PubChem BioAssay AID504648 (National Center for Advancing Translational Sciences (NCATS), 2011)
About 610 (0.16%) of roughly 390,000 compounds were called active. Inconclusive means that the source gave no clear call. Such entries were picked first, then a sample of the others. The call rests on the fitted dose curve; in most records, active means well fitted inhibition curve with a large enough effect; inconclusive means small, poorly fitted or top-dose-only effect, or effect the other way, or another doubt; inactive means no such curve, though single readings can be large or run the other way. Potencies beside an inconclusive call are fits to weak or partial responses and may not hold up.

Experiment: Nrf2 qHTS screen for inhibitors: counterscreen for cytotoxicity
Details: A549 ARE-Fluc cells, CellTiter-Fluor viability, 18-24 h; activity change, negative = cytotoxicity: at 46 µM (top of the series)
How it was run: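 A549 ARE_Fluc cells in 5% FBS OPTI-MEM were exposed to compounds in concentration-response for 18-24 h at 37 deg C. Viability was read by CellTiter-Fluor fluorescence (Ex 405/Em 525) after 30 min, before the luciferase read.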
On the % scale 0 is the no-effect control and ±100 the full control effect; potency means the concentration at half of the fitted maximal effect.

| SMILES | Potency | activity change, negative = cytotoxicity |
| --- | --- | --- |
| Cc1ccc(NC(=O)CS(=O)CC(=O)Nc2ccc3c(c2)OCO3)cc1Cl (configuration not stated) | inconclusive: 1.64 µM [activator, partial curve, poor fit] | – |
| COc1ccc(C(=O)Nc2ccccc2-c2ccccc2)cc1Cl | inconclusive: 1.3 µM [activator, full curve, poor fit] | – |
| CCCOc1ccc(OC(=O)c2c(-c3ccccc3Cl)noc2C)cc1 | inconclusive: 18.4 µM [activator, partial curve, poor fit] | – |
| N#C/C(=C\c1ccc(Sc2nc3ccccc3[nH]2)o1)c1ccccc1 | inconclusive: 25.9 µM [falling, single point] | – |
| O=C(C1CCN(c2nc3ccccc3[nH]2)CC1)N1CCN(c2ccccc2)CC1 | – | inactive: 5.55% |
| COc1cccc(-c2ccc(=O)n(CC(=O)Nc3ccc(C(=O)N4CCCC4)cc3)n2)c1 | – | inactive: -3.76% |
| COc1ccccc1NC(=O)CCn1nc(-c2ccccc2)c2ccccc2c1=O | inconclusive: 32.6 µM [falling, partial curve, poor fit] | – |
| CCN(CC)CCCC(C)Nc1nccc2cccc(Cl)c12 (configuration not stated) | inconclusive: 32.6 µM [falling, partial curve, poor fit] | – |
| CC(C)(C)C(=O)NC(=S)NNC(=O)C(c1ccccc1)c1ccccc1 | – | inactive: -25.7% |
| Cc1ccc(OCC(=O)Nc2cc(S(=O)(=O)N3CCCCC3)ccc2N2CCN(C)CC2)c(C)c1 | inconclusive: 3.66 µM [falling, partial curve, poor fit] | – |
| Cc1cc(Nc2cc(Cl)cc(Cl)c2)nc(N)n1 | – | inactive: -13.4% |
| Cc1nn(Cc2ccc(Cl)cc2)c(C)c1NC(=O)c1noc2c1CCc1ccccc1-2 | inconclusive: 25.9 µM [falling, partial curve, poor fit] | – |
| CCOC(=O)c1cnc(SCC(=O)Nc2ccc(NC(=O)CC)c(OC)c2)nc1N | inconclusive: 2.31 µM [falling, partial curve, poor fit] | – |
| COc1cc(Nc2c3ccccc3nc3ccccc23)cc(OC)c1OC | inconclusive: 29.1 µM [falling, partial curve, poor fit] | – |
| O=C(CCN1CCN(c2ccccc2)CC1)N/N=C/c1ccccc1O | – | inactive: -6.09% |
| CCCCC[n+]1ccn(C2=C([O-])c3ccccc3C(=O)/C2=N\S(=O)(=O)c2ccc(Br)cc2)c1 | inconclusive: 29.1 µM [falling, single point] | – |
| O=c1[nH]c(Nc2nc3ccccc3o2)nc2c1CCCC2 | inconclusive: 16.4 µM [falling, single point] | – |
| Cc1ccc(S(=O)(=O)Nc2ccc3c(c2)CCC3)cc1 | inconclusive: 20.6 µM [falling, partial curve, poor fit] | – |
| CC(C)N(C(=O)[C@H]1C[C@H](CC(=O)NCCC2=CCCCC2)C(=O)N2CCc3c([nH]c4cc(-c5ccco5)ccc34)[C@]12C)C(C)C | inconclusive: 16.4 µM [falling, single point] | – |
| C[C@@H]1C=CC(=O)O[C@@H]1c1ccc(Cl)cc1 | – | inactive: -0.725% |
| Cc1ccccc1NC(=O)N1CCCC(c2nc(-c3ccc(C(C)C)cc3)no2)C1 (configuration not stated) | inconclusive: 18.4 µM [falling, single point] | – |

| SMILES | Potency | activity change, negative = cytotoxicity |
| --- | --- | --- |
| CCc1ccccc1NC(=O)Cn1c(=O)nc(-c2ccccc2)c2ccccc21 | inconclusive: 25.9 µM [falling, partial curve, poor fit] | – |
| CCN1C(C(=O)c2ccccc2)=C(OC(=O)C(C)C)c2ccccc2S1(=O)=O | inconclusive: 18.4 µM [falling, single point] | – |
| COc1cc(CNCCCN2CCOCC2)cc(Br)c1OCC(=O)N1CCCCC1 | inconclusive: 35.5 µM [falling, partial curve, poor fit] | – |
| CCCn1nc(NS(=O)(=O)c2ccccc2)c2cc3cc(C)ccc3nc21 | inconclusive: 2.31 µM [falling, partial curve, poor fit] | – |
| CCCC(O)c1nc2ccccc2n1CCCCOc1ccc(OC)cc1 (configuration not stated) | – | inactive: 6.33% |
| COc1cccc(-c2noc(C3CCCN(S(=O)(=O)c4cccc(Cl)c4C)C3)n2)c1 (configuration not stated) | – | inactive: -1.42% |
| Cc1ccc(-c2csc(-c3c[nH]c4ccccc34)n2)c(C)c1 | inconclusive: 23.1 µM [falling, single point] | – |
| Cc1cc(=O)[nH]c(SCC(=O)N2CCCC2)n1 | – | inactive: -5.97% |
| COc1cc(NCCCC(C)N)c2ncccc2c1 (configuration not stated) | inconclusive: 8.2 µM [falling, partial curve] | – |
| CC(Nc1nc(N2CCCC2)nc2ccccc12)c1ccccc1 (configuration not stated) | inconclusive: 29.1 µM [falling, single point] | – |
| CC1(NC(=O)CC(c2ccccc2)(c2ccccc2)c2ccccc2)CCN(CCCc2ccccc2)C1=O (configuration not stated) | inconclusive: 23.1 µM [falling, partial curve, poor fit] | – |
| Cc1nc2cc(NS(=O)(=O)c3c(C)c(C)cc(C)c3C)ccc2s1 | inconclusive: 35.5 µM [falling, single point] | – |
| CCOc1ccccc1NC(=O)CCCc1nc2ccccc2c(=O)[nH]1 | inconclusive: 18.4 µM [falling, single point] | – |
| N#C/C(=C\Nc1ccc2cn[nH]c2c1)c1nc(-c2ccc(Cl)cc2)cs1 | inconclusive: 29.1 µM [falling, partial curve, poor fit] | – |
| CCSc1nnc(SCC(=O)NC2CCCCC2)s1 | – | inactive: 0.212% |
| O=C(NNc1ccc([N+](=O)[O-])cc1[N+](=O)[O-])c1ccco1 | inconclusive: 18.4 µM [falling, single point] | – |
| Cn1c(=O)c(C(=O)NNC(=O)c2ccccc2Br)c(O)c2ccccc21 | inconclusive: 20.6 µM [falling, single point] | – |
| CCCCCCOc1ccc(/C(C)=N/NC2=NCCN2)cc1[N+](=O)[O-] | – | inactive: -1.98% |
| CCc1ccc(CNn2cnnc2SCC(=O)NC(C)(C)C)cc1 | – | inactive: -21.9% |
| CCCc1cc(=O)[nH]c(SCC(=O)Nc2ccc([N+](=O)[O-])cc2C#N)n1 | inconclusive: 29.1 µM [falling, single point] | – |
| C/C(Cc1ccccc1)=N\NC(=O)CNC(=O)Cc1ccc(Cl)cc1 | – | inactive: -2.78% |

Laid out differently: entries from further up
SMILES | Potency | activity change, negative = cytotoxicity
CCCn1nc(NS(=O)(=O)c2ccccc2)c2cc3cc(C)ccc3nc21 | inconclusive: 2.31 µM [falling, partial curve, poor fit] | –
CCCC(O)c1nc2ccccc2n1CCCCOc1ccc(OC)cc1 (configuration not stated) | – | inactive: 6.33%
COc1cccc(-c2noc(C3CCCN(S(=O)(=O)c4cccc(Cl)c4C)C3)n2)c1 (configuration not stated) | – | inactive: -1.42%
Cc1cc(=O)[nH]c(SCC(=O)N2CCCC2)n1 | – | inactive: -5.97%
CC(Nc1nc(N2CCCC2)nc2ccccc12)c1ccccc1 (configuration not stated) | inconclusive: 29.1 µM [falling, single point] | –
Cc1nc2cc(NS(=O)(=O)c3c(C)c(C)cc(C)c3C)ccc2s1 | inconclusive: 35.5 µM [falling, single point] | –
CCOc1ccccc1NC(=O)CCCc1nc2ccccc2c(=O)[nH]1 | inconclusive: 18.4 µM [falling, single point] | –
CCSc1nnc(SCC(=O)NC2CCCCC2)s1 | – | inactive: 0.212%
O=C(NNc1ccc([N+](=O)[O-])cc1[N+](=O)[O-])c1ccco1 | inconclusive: 18.4 µM [falling, single point] | –
Cn1c(=O)c(C(=O)NNC(=O)c2ccccc2Br)c(O)c2ccccc21 | inconclusive: 20.6 µM [falling, single point] | –
CCCCCCOc1ccc(/C(C)=N/NC2=NCCN2)cc1[N+](=O)[O-] | – | inactive: -1.98%
C/C(Cc1ccccc1)=N\NC(=O)CNC(=O)Cc1ccc(Cl)cc1 | – | inactive: -2.78%
